From the supplement of paper PMC10849652
The list shows a part of the results.

Chains of the proteins cited; added tags and fusions are not shown. Lines headed by an entry give the natural chain unless they say otherwise; changes in a name come on top.
UniProt Q969Q5: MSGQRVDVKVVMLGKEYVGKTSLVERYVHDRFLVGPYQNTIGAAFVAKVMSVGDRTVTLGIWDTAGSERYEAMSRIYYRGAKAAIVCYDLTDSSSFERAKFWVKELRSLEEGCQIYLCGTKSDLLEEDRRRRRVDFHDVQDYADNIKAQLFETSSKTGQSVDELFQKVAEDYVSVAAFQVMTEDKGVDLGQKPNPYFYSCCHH
UniProt P51151: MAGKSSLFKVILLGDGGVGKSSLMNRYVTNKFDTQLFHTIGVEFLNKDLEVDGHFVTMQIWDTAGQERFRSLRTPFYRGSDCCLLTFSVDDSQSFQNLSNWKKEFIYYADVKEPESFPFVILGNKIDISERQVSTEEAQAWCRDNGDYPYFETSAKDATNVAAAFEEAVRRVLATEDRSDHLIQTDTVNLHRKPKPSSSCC
UniProt Q9ULC3: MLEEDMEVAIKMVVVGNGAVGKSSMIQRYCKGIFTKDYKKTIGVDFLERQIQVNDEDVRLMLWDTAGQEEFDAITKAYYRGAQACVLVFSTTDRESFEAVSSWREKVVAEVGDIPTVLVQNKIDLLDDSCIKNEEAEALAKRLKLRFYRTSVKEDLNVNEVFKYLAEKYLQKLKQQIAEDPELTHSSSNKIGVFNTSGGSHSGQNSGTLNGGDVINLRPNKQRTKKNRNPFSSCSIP
UniProt Q9Y3L5: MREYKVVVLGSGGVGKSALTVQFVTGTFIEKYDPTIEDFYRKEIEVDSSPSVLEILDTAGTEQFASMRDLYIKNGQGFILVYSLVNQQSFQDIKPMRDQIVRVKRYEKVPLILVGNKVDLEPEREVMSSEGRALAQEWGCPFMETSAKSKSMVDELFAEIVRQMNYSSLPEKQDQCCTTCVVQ
UniProt Q86WH2: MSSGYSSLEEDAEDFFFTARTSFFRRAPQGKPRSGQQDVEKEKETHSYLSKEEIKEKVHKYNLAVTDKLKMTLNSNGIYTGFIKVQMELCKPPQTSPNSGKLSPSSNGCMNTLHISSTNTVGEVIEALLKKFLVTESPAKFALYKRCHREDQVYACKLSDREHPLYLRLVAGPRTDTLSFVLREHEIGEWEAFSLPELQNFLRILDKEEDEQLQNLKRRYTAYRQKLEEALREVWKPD
UniProt O15315: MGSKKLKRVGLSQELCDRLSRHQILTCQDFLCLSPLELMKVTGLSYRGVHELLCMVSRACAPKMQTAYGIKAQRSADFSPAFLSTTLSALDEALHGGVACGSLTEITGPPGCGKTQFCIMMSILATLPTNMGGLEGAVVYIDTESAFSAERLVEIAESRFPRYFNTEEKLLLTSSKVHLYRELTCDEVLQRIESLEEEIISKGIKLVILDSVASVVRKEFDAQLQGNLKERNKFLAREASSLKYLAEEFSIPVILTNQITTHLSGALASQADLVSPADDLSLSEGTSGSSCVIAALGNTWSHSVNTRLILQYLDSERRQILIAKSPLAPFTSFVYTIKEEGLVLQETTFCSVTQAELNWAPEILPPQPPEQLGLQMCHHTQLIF
UniProt Q9NW13: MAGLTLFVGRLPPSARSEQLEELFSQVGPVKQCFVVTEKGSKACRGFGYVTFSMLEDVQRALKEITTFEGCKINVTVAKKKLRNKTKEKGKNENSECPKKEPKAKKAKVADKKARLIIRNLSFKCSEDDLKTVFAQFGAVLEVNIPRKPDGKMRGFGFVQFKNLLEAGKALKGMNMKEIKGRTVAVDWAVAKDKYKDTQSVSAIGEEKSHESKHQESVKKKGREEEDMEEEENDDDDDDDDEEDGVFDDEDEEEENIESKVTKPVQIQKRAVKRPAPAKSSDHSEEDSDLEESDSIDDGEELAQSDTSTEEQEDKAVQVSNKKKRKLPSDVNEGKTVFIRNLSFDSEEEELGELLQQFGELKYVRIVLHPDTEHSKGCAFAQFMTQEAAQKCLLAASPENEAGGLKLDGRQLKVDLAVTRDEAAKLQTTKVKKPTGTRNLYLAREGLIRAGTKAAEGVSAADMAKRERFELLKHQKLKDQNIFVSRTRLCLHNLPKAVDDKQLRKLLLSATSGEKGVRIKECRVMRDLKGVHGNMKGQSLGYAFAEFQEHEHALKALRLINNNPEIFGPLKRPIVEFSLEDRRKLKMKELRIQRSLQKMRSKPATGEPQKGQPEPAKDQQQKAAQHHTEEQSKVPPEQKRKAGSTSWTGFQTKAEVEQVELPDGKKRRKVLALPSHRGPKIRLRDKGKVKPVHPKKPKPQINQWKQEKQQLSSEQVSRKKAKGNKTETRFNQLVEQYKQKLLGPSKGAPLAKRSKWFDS
UniProt Q15311: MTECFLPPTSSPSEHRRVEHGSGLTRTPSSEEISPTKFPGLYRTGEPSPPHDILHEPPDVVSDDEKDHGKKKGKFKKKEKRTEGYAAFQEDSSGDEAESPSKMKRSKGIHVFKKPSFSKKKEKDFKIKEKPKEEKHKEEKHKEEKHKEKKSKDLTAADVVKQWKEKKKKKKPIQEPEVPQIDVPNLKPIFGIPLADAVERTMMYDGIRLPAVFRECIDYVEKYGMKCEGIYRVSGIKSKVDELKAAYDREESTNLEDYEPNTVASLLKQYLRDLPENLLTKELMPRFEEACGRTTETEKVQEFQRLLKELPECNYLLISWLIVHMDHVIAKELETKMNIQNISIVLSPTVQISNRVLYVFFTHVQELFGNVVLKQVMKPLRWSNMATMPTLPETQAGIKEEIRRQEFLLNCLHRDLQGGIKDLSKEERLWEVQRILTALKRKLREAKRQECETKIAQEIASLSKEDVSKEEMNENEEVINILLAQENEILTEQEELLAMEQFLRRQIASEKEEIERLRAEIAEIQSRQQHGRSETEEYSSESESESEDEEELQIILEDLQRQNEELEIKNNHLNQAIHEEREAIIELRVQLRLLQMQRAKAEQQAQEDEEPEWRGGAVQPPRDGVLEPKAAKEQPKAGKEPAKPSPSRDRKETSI
UniProt Q9H5N1: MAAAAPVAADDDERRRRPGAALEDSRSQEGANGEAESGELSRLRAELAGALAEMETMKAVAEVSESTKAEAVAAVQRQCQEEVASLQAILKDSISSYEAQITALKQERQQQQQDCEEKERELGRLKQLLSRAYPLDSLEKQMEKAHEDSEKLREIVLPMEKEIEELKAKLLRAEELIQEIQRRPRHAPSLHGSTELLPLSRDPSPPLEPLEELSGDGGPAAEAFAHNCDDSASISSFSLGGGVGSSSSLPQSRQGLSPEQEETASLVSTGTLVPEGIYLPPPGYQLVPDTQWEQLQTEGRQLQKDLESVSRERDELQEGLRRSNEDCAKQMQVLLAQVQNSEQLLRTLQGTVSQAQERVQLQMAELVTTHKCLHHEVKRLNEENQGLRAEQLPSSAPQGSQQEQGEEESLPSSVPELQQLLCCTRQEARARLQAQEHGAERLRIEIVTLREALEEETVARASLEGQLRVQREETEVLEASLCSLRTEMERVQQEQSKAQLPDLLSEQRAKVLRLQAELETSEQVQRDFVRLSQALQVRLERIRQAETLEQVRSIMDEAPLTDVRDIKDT
UniProt Q9UI14, whole entry, looked up: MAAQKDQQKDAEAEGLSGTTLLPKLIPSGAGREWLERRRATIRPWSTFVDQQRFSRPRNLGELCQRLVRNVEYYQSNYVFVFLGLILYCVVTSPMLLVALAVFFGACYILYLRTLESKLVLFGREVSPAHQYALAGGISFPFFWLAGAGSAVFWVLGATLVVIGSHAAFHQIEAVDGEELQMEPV
UniProt Q86X10: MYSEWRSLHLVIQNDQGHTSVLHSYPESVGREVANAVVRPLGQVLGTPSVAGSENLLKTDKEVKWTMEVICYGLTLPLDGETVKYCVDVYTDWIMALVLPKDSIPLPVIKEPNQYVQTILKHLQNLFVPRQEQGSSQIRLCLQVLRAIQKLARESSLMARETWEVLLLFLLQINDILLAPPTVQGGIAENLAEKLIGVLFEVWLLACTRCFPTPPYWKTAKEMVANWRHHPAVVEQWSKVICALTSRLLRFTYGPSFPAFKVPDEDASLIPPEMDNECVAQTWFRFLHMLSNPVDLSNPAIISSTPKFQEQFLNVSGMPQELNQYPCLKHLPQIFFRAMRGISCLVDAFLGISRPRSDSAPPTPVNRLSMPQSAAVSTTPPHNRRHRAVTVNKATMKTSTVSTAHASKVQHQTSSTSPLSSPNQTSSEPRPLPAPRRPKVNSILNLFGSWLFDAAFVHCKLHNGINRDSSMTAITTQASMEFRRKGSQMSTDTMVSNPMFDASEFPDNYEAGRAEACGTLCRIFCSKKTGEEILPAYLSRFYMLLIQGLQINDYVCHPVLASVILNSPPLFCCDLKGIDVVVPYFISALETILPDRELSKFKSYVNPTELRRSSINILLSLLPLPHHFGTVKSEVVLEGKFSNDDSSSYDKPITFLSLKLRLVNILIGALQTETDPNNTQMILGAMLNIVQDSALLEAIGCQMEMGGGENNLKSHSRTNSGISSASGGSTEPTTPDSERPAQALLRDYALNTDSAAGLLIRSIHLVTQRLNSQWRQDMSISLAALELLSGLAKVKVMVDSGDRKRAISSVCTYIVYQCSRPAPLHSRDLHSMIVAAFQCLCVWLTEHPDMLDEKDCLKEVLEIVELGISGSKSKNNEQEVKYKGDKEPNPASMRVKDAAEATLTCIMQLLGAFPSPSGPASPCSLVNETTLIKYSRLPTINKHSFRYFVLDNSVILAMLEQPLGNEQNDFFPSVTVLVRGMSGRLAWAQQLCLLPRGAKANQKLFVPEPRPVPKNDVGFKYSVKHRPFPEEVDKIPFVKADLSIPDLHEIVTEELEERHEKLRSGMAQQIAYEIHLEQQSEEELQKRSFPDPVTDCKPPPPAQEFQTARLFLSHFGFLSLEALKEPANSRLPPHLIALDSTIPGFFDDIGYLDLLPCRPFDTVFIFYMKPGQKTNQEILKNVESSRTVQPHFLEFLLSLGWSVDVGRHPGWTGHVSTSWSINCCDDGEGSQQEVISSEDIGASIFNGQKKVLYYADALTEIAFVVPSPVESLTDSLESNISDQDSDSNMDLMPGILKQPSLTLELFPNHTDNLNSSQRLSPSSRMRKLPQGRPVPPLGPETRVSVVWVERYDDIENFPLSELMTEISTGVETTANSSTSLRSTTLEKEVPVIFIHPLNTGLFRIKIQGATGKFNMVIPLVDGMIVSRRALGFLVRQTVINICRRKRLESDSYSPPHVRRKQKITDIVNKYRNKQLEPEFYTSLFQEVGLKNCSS
UniProt Q15032: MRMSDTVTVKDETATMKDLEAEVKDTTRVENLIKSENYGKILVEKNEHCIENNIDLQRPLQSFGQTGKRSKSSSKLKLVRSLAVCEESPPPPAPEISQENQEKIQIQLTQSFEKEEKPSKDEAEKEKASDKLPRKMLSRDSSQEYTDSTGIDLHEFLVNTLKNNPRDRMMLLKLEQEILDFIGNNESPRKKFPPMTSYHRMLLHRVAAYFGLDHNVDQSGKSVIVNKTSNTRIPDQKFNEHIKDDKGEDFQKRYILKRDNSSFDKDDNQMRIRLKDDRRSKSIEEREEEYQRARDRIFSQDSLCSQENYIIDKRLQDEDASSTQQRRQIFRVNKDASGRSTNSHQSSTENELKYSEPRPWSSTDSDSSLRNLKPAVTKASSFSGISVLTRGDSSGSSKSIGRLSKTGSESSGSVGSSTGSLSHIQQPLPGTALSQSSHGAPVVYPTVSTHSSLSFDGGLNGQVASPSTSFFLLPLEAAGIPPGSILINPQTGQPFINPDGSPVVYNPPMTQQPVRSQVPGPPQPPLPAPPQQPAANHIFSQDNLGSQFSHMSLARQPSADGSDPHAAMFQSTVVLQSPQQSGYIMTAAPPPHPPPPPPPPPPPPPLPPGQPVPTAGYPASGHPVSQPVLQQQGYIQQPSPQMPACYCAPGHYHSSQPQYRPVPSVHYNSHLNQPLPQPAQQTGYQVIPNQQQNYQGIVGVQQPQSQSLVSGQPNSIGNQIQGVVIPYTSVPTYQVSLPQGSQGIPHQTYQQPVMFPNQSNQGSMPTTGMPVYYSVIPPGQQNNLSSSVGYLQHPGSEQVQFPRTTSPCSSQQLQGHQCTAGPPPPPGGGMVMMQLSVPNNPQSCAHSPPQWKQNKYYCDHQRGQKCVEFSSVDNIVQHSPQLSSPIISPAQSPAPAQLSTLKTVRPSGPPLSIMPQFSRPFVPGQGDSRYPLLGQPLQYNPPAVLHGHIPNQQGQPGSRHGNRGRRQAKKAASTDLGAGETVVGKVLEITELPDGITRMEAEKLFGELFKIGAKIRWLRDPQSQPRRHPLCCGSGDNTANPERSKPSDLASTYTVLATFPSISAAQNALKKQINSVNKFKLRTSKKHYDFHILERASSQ
UniProt P20337: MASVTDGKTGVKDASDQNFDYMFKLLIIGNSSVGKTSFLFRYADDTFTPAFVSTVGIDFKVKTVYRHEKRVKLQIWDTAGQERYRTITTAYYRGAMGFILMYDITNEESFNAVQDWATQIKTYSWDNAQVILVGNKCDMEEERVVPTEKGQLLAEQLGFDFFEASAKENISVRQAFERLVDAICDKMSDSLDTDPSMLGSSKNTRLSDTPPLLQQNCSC

Legend:
Assay in all cases: log2 fold change, soluble protein after heating vs DMSO (PISA); higher = thermal stabilisation; K562 cells, 10 uM, 30 min; active = over 0.2 and 3.5 SD of the protein, either way, in both replicates (recomputed)
[1] = compound: C1=CC=C(C=C1)[C@H](COC2=CC3=C(C=C2)NC(=O)N3)NC(=O)C4=CC=CN(C4=O)CC5=CC(=C(C=C5)F)F
In short: (§1)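 Values are thermal stability changes relative to control samples and are taken from duplicates. They are stated as log2 fold changes. Before quantification by TMTpro 16plex LC-MS/MS with equalised channel sums, K562 cells at 2×10^6 cells/mL were treated with 10 μM compound for 30 min, heated in aliquots for 3 min across 48°C-58°C, pooled, extracted in PBS with 0.5% NP-40 at 4°C, and centrifuged at 21,000xg for 90 min to give the soluble supernatant.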

[2] = compound: CC1=C(SC2=C1C(=N[C@H](C3=NN=C(N32)C)CC(=O)N)C4=CC=C(C=C4)Cl)C
In short: as §1

[3] = compound: CC1=C2C(=CC=C1)N=C(N(C2=O)C3=CC=CC=C3C)CN4C=NC5=C(N=CN=C54)N
In short: as §1

[4] = compound: Cc1sc2c(c1C)C(c1ccc(Cl)cc1)=N[C@@H](CC(=O)OC(C)(C)C)c1nnc(C)n1-2
In short: as §1

[5] = compound: c1ccc([C@@H]2C[C@H]2NC2CCNCC2)cc1
In short: as §1

Measured: log2 fold change

RAB14 (UniProt P61106)
inactive: [1] 0.032 | [2] 0.072 | [3] 0.064 | [4] -0.023 | [5] -0.016

RAP1B (UniProt P61224)
inactive: [1] -0.018 | [2] 0.042 | [3] -0.036 | [4] -0.027 | [5] 0.018

RAB24 (UniProt Q969Q5)
inactive: [1] 0.019 | [2] -0.001 | [3] -0.041 | [4] 0.003 | [5] 0.057

RAB9A (UniProt P51151)
inactive: [1] 0.024 | [2] 0.088 | [3] 0.065 | [4] -0.04 | [5] 0.001

RAB23 (UniProt Q9ULC3)
inactive: [1] 0.013 | [2] 0.074 | [3] 0.055 | [4] 0.039 | [5] -0.045

RAP2C (UniProt Q9Y3L5)
inactive: [1] 0 | [2] 0.055 | [3] -0.012 | [4] 0.038 | [5] -0.011

RAB3IL1 (UniProt E9PK89)
inactive: [1] 0.05 | [2] 0.259 | [3] -0.107 | [4] 0.15 | [5] -0.136

RAB27B (UniProt O00194)
inactive: [1] 0.019 | [2] 0.063 | [3] 0.046 | [4] 0.093 | [5] 0.128

RASA2 (UniProt Q15283)
inactive: [1] -0.238 | [2] -0.006 | [3] 0.311 | [5] 0.158

RAD51AP1 (UniProt Q96B01)
inactive: [1] 0.026 | [2] 0.02 | [3] -0.055 | [4] 0.054 | [5] 0.078

RAD50, A0A494C0Y7
inactive: [1] -0.1 | [2] -0.003 | [3] 0.194 | [4] 0.104 | [5] 0.118

RASSF3 (UniProt Q86WH2)
inactive: [1] -0.036 | [2] 0.171 | [3] 0.033 | [5] 0

RAP1B (UniProt F5GWU8)
inactive: [2] 0.063 | [3] 0.022 | [5] -0.205

RBBP8 isoform 2 (UniProt Q99708)
inactive: [4] 0.015

RAD51B (UniProt O15315)
inactive: [1] -0.138 | [2] 0.228 | [4] 0.035 | [5] 0.111

Two neighbouring entries already listed, quoted:
RAB3IL1 (UniProt E9PK89)
inactive: [1] 0.05 | [2] 0.259 | [3] -0.107 | [4] 0.15 | [5] -0.136

RAB27B (UniProt O00194)
inactive: [1] 0.019 | [2] 0.063 | [3] 0.046 | [4] 0.093 | [5] 0.128

Next part.

RBM28 (UniProt Q9NW13)
inactive: [1] -0.03 | [2] -0.33 | [5] -0.122

RACGAP1 (UniProt Q9H0H5)
inactive: [1] -0.076 | [2] 0.066 | [3] 0.053 | [4] 0.103 | [5] -0.032

RALBP1 (UniProt Q15311)
inactive: [2] 0.038 | [3] 0.076 | [4] 0.068 | [5] -0.208

RABEP2 (UniProt Q9H5N1)
inactive: [2] 0.06 | [5] -0.134

RABAC1 (UniProt Q9UI14)
inactive: [1] 0.077 | [3] 0.139 | [4] -0.02

RASA3 (UniProt Q14644)
inactive: [2] 0.071 | [5] -0.259

RAB28 (UniProt P51157)
inactive: [2] -0.013 | [3] 0.044 | [5] 0.057

RAB40C (UniProt Q96S21)
inactive: [1] 0.077 | [3] 0.064 | [4] -0.18

RALGAPB (UniProt Q86X10)
inactive: [1] -0.068 | [2] -0.161 | [4] 0.098 | [5] 0.145

R3HDM1 isoform 2 (UniProt Q15032)
inactive: [1] 0.024 | [3] -0.026 | [4] 0.033

RASA1 (UniProt P20936)
inactive: [2] -0.074 | [3] 0.187 | [4] 0.073 | [5] -0.103

RAD17 (UniProt O75943)
inactive: [4] 0.051

RBBP4 isoform 2 (UniProt Q09028)
inactive: [1] -0.011 | [2] 0.043 | [5] 0.157

RABGAP1L isoform 5 (UniProt Q5R372)
inactive: [1] 0.027 | [2] 0.027 | [4] 0.113 | [5] 0.066

RAB3B (UniProt P20337)
inactive: [4] -0.008
